# In the supplement of paper PMC12823440, “Inhibitors supercharge kinase turnover through native proteolytic circuits” (Nature, 2025):
# The chains behind the UniProt entries cited, without tags or fusion partners. Where a name states a change or a piece, a line headed by the entry shows the natural chain unless it says otherwise.
# UniProt P29317, whole entry: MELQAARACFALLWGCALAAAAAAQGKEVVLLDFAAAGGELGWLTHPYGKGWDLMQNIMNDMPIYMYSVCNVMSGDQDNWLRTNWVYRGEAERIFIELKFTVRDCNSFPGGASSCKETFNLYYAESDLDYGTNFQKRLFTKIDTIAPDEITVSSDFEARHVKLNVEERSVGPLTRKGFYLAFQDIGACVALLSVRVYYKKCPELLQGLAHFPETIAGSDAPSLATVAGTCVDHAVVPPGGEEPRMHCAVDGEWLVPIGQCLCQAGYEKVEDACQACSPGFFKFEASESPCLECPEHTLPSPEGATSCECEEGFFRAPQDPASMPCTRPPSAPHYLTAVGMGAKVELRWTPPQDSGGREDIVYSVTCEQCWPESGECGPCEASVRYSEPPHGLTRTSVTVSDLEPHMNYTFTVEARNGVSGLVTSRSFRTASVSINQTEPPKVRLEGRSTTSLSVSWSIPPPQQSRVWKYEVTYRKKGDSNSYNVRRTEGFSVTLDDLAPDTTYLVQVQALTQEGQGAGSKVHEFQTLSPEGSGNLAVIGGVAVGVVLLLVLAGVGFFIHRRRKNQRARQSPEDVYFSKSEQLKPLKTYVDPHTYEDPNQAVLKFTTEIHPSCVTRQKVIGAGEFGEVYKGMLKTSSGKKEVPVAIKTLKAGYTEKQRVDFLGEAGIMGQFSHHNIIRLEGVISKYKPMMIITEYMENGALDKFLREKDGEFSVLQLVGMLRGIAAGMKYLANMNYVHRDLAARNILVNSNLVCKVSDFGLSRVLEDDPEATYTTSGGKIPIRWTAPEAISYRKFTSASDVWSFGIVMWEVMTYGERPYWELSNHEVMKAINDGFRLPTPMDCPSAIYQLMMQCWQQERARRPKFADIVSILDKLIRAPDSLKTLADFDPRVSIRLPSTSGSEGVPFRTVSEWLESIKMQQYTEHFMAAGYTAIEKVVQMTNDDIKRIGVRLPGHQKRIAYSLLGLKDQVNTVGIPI
# UniProt P21860, whole entry: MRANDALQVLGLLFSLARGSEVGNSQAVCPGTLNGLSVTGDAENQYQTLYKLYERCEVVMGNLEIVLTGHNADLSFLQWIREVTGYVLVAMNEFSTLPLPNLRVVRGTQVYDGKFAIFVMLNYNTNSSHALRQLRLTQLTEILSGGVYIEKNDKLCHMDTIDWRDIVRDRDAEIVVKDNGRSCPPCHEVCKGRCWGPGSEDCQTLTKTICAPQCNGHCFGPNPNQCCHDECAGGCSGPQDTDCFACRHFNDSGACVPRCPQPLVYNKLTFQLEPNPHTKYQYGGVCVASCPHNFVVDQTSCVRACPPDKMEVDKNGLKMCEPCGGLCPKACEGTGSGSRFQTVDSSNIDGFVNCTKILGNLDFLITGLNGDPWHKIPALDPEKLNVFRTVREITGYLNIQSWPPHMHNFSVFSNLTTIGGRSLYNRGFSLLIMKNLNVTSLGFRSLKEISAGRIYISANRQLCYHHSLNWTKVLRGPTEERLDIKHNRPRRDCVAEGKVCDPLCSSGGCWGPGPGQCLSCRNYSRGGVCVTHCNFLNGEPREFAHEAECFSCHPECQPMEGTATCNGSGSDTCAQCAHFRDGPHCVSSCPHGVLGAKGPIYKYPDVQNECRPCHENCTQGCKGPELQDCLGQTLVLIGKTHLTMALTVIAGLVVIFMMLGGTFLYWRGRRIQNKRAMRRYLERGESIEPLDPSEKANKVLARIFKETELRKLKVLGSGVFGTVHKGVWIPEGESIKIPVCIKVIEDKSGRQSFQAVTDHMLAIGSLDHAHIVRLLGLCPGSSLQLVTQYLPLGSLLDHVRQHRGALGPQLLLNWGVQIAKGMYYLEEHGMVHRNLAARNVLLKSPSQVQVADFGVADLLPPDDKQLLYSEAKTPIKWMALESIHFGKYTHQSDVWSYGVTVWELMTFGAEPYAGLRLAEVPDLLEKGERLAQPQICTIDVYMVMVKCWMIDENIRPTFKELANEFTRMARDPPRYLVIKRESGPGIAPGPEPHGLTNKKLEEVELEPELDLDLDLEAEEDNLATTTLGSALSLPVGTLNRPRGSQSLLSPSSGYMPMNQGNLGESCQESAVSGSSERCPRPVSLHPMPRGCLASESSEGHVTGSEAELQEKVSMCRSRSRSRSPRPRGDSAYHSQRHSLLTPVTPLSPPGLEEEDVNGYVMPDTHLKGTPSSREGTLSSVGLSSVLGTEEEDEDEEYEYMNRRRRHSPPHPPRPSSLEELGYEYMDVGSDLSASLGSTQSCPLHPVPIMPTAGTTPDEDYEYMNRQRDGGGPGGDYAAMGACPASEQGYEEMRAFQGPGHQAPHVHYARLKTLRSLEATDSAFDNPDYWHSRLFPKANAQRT
# UniProt Q15303, whole entry R711C: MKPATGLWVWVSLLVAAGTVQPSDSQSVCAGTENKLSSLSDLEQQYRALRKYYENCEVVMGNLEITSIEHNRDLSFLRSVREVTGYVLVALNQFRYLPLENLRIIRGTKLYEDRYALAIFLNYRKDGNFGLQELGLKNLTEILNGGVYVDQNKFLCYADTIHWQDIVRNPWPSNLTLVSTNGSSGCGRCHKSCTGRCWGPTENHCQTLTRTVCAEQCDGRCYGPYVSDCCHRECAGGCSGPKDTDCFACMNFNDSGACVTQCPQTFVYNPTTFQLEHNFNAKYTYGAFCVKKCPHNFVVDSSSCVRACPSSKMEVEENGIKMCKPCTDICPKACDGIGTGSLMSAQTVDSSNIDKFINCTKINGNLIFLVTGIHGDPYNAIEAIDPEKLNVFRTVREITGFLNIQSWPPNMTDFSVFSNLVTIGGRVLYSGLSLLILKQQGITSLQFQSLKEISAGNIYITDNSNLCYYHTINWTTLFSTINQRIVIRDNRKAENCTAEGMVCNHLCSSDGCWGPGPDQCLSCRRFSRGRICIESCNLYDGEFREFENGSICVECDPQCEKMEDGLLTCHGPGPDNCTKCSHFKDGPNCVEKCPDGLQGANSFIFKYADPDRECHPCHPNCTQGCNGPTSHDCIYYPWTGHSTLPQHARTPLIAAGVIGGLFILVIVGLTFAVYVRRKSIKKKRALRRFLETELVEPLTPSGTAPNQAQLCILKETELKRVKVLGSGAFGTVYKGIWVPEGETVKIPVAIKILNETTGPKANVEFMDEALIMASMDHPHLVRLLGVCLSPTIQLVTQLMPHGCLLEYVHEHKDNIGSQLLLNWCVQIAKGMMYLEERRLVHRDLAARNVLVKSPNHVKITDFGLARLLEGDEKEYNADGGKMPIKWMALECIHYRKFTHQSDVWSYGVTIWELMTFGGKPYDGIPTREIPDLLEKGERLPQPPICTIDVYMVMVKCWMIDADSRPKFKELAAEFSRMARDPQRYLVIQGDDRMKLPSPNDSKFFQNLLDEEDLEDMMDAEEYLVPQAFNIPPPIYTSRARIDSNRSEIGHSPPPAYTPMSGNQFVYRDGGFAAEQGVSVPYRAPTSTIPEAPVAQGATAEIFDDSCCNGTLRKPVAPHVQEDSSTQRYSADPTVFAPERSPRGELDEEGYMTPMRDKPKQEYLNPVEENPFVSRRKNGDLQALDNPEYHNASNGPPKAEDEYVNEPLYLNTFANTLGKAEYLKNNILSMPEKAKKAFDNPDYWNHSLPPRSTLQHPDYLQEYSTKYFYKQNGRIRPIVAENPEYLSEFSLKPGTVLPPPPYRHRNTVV
# UniProt P11362, whole entry, looked up: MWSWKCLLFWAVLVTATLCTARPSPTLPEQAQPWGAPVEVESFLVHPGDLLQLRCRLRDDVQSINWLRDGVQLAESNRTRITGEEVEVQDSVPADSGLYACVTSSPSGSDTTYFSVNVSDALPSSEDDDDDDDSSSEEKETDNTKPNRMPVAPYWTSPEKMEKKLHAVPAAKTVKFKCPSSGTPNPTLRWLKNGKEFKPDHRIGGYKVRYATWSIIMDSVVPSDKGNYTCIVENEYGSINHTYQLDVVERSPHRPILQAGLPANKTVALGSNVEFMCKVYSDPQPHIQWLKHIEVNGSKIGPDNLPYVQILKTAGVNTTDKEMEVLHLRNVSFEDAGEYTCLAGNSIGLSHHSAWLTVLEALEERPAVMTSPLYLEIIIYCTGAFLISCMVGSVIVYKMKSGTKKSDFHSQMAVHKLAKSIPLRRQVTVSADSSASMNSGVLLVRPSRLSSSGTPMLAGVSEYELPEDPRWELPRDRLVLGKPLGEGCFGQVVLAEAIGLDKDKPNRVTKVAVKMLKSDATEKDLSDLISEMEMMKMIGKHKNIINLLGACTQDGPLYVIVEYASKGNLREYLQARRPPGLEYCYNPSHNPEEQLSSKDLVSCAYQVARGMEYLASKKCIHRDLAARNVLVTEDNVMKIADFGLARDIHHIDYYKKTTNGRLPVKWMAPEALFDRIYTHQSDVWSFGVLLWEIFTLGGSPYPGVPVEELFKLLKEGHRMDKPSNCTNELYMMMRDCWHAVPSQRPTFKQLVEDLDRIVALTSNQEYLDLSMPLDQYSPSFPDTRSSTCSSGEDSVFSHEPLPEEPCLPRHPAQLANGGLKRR
# UniProt P36888, whole entry: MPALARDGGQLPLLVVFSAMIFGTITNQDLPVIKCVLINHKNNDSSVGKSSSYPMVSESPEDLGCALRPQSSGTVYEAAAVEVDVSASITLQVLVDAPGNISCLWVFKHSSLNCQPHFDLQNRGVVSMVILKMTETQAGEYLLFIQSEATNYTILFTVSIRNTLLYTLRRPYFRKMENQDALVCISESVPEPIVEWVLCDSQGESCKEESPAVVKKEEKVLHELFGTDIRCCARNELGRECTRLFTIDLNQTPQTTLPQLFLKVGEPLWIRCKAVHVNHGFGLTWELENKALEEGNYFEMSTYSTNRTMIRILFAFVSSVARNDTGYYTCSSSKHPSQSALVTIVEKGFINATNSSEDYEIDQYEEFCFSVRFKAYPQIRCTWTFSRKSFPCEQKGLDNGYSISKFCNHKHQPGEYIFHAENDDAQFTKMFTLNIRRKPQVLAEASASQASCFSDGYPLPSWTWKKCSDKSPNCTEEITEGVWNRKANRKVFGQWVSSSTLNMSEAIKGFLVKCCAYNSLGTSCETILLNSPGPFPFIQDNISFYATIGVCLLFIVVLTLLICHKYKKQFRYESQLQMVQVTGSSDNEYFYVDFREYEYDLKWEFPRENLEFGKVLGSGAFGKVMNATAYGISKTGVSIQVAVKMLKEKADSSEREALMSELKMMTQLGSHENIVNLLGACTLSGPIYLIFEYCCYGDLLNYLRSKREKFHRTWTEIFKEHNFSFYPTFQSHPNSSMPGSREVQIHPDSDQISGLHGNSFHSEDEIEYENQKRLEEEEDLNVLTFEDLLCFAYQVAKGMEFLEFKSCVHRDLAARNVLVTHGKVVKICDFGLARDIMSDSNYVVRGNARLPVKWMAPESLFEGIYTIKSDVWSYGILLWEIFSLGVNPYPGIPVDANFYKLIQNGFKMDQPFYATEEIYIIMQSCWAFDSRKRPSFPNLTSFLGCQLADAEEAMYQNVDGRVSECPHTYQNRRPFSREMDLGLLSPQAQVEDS
# UniProt P06241, whole entry, looked up: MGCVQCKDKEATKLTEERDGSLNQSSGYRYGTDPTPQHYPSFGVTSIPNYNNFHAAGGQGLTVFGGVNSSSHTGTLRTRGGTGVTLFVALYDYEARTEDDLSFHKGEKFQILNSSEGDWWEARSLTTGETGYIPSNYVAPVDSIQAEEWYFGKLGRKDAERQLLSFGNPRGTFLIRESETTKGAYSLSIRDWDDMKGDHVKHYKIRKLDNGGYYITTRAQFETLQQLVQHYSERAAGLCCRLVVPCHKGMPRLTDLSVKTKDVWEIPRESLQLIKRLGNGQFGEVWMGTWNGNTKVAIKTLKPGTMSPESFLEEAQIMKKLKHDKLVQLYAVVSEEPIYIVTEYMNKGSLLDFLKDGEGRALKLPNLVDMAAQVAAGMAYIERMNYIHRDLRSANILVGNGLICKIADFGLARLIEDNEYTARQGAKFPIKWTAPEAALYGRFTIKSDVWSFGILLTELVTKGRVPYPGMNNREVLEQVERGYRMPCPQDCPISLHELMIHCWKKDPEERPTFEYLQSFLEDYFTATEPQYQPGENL
# UniProt P49840: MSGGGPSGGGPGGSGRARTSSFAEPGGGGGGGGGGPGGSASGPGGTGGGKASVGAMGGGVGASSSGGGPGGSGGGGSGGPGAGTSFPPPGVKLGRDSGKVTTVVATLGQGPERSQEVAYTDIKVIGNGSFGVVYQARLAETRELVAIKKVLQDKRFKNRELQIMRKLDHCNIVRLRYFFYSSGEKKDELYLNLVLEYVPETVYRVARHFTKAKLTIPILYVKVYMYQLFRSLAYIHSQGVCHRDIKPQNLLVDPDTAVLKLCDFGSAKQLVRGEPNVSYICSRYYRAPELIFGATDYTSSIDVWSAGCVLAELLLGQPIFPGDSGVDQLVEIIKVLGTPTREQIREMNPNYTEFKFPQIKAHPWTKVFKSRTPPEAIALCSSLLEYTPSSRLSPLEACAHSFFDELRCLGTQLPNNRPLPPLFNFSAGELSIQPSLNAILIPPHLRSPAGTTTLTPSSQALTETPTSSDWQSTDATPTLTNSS
# The other results are listed elsewhere or left out. Hit calls seldom repeat between salt and free forms of one compound.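 In K562 cells expressing nanoluciferase-fused kinases, luminescence was recorded at 4 h intervals between 2 and 18 h, normalized as percent of control with DMSO at 100% and a positive control at 0%. A significant (2 sigma) signal drop marks a time point as decreased. The authors' rule for a hit is not shown and takes in more than the number of time points.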
# Columns and labels:
# Experiment in all cases: kinase-Nluc reporter destabilization hit call (1 = scored as downregulated) (binary); higher = compound decreases kinase abundance
# Settings in all cases: K562; 2-18 h
# EGFR = EGFR (UniProt P00533)
# EGFR_G719S = EGFR_G719S (UniProt P00533)
# EGFR_G719S_T790M = EGFR_G719S_T790M (UniProt P00533)
# EGFR_L718V = EGFR_L718V (UniProt P00533)
# EGFR_L858R = EGFR_L858R (UniProt P00533)
# EGFR_L861Q = EGFR_L861Q (UniProt P00533)
# EGFR_T790M = EGFR_T790M (UniProt P00533)
# EPHA2 = EPHA2 (UniProt P29317)
# ERBB3 = ERBB3 (UniProt P21860)
# [1] = target: ERBB4_R711C (clone: ERBB4_mut) (UniProt Q15303)
# ERN1 = ERN1 (UniProt O75460)
# FGFR1 = FGFR1 (UniProt P11362)
# FGFR2 = FGFR2 (UniProt P21802)
# FGFR3 = FGFR3 (UniProt P22607)
# FGR = FGR (UniProt P09769)
# FLT3 = FLT3 (UniProt P36888)
# FYN = FYN (UniProt P06241)
# GSK3A = GSK3A (UniProt P49840)
# HER2 = HER2 (UniProt P04626)
# INSRR = INSRR (UniProt P14616)
Structure (SMILES),kinase-Nluc reporter destabilization hit call (EGFR),kinase-Nluc reporter destabilization hit call (EGFR_G719S),kinase-Nluc reporter destabilization hit call (EGFR_G719S_T790M),kinase-Nluc reporter destabilization hit call (EGFR_L718V),kinase-Nluc reporter destabilization hit call (EGFR_L858R),kinase-Nluc reporter destabilization hit call (EGFR_L861Q),kinase-Nluc reporter destabilization hit call (EGFR_T790M),kinase-Nluc reporter destabilization hit call (EPHA2),kinase-Nluc reporter destabilization hit call (ERBB3),kinase-Nluc reporter destabilization hit call [1],kinase-Nluc reporter destabilization hit call (ERN1),kinase-Nluc reporter destabilization hit call (FGFR1),kinase-Nluc reporter destabilization hit call (FGFR2),kinase-Nluc reporter destabilization hit call (FGFR3),kinase-Nluc reporter destabilization hit call (FGR),kinase-Nluc reporter destabilization hit call (FLT3),kinase-Nluc reporter destabilization hit call (FYN),kinase-Nluc reporter destabilization hit call (GSK3A),kinase-Nluc reporter destabilization hit call (HER2),kinase-Nluc reporter destabilization hit call (INSRR)
Cc1cc(-c2cc(OC(=O)c3ccccc3)ccc2Cl)cc2nnc(Nc3ccc(OCCN4CCCC4)cc3)nc12 (0.5 µM),inactive: 0,inactive: 0,inactive: 0,inactive: 0,inactive: 0,inactive: 0,inactive: 0,inactive: 0,inactive: 0,inactive: 0,inactive: 0,inactive: 0,inactive: 0,inactive: 0,inactive: 0,inactive: 0,inactive: 0,inactive: 0,inactive: 0,inactive: 0
CNC(=O)c1ccc(-c2cnc3cnc(C(=O)N(C)c4ccc(Cl)cc4)cn23)cc1 (2.5 µM),inactive: 0,inactive: 0,inactive: 0,inactive: 0,inactive: 0,inactive: 0,inactive: 0,inactive: 0,inactive: 0,inactive: 0,inactive: 0,inactive: 0,inactive: 0,inactive: 0,inactive: 0,inactive: 0,inactive: 0,inactive: 0,inactive: 0,inactive: 0
CC[C@@]1(c2ccccc2)C2=C(CC(C)(C)CC2=O)Nc2[nH]ncc21 (10 µM),inactive: 0,inactive: 0,inactive: 0,inactive: 0,inactive: 0,inactive: 0,inactive: 0,inactive: 0,inactive: 0,inactive: 0,inactive: 0,inactive: 0,inactive: 0,inactive: 0,inactive: 0,inactive: 0,inactive: 0,inactive: 0,inactive: 0,inactive: 0
O=C(Nc1cc(Oc2cc(F)c(NC(=O)C3(C(=O)Nc4ccc(F)cc4)CC3)cc2F)ccn1)C1CC1 [Altiratinib] (10 µM),inactive: 0,inactive: 0,inactive: 0,inactive: 0,inactive: 0,inactive: 0,inactive: 0,inactive: 0,inactive: 0,inactive: 0,inactive: 0,inactive: 0,inactive: 0,inactive: 0,inactive: 0,inactive: 0,inactive: 0,inactive: 0,inactive: 0,inactive: 0
O=C(Nc1ccc2[nH]nc(-c3ccncc3)c2c1)[C@@H]1CCN(CC(=O)N2CCN(c3ccc(-c4ncccn4)cc3)CC2)C1 (2.5 µM),inactive: 0,inactive: 0,inactive: 0,inactive: 0,inactive: 0,inactive: 0,inactive: 0,inactive: 0,inactive: 0,inactive: 0,inactive: 0,inactive: 0,inactive: 0,inactive: 0,inactive: 0,inactive: 0,inactive: 0,inactive: 0,inactive: 0,inactive: 0
CS(=O)(=O)c1ccc(-c2cnc(N)c(C(=O)Nc3ccccc3)n2)cc1 (10 µM),inactive: 0,inactive: 0,inactive: 0,inactive: 0,inactive: 0,inactive: 0,inactive: 0,inactive: 0,inactive: 0,inactive: 0,inactive: 0,inactive: 0,inactive: 0,inactive: 0,inactive: 0,inactive: 0,inactive: 0,inactive: 0,inactive: 0,inactive: 0
N#CC(c1ccnc(NCCc2cccnc2)n1)c1nc2ccccc2s1 (stereo not given) (10 µM),inactive: 0,inactive: 0,inactive: 0,inactive: 0,inactive: 0,inactive: 0,inactive: 0,inactive: 0,inactive: 0,inactive: 0,inactive: 0,inactive: 0,inactive: 0,inactive: 0,inactive: 0,inactive: 0,inactive: 0,inactive: 0,inactive: 0,inactive: 0
Nc1ncc(-c2cccc(N3CCNCC3)c2)cc1C(=O)Nc1ccncc1 [PKC-iota inhibitor 1] (10 µM),inactive: 0,inactive: 0,inactive: 0,inactive: 0,inactive: 0,inactive: 0,inactive: 0,inactive: 0,inactive: 0,inactive: 0,inactive: 0,inactive: 0,inactive: 0,inactive: 0,inactive: 0,inactive: 0,inactive: 0,inactive: 0,inactive: 0,inactive: 0
Nc1ncnc2c1ncn2[C@@H]1O[C@H](CO)C[C@H]1O [Cordycepin] (10 µM),inactive: 0,inactive: 0,inactive: 0,inactive: 0,inactive: 0,inactive: 0,inactive: 0,inactive: 0,inactive: 0,inactive: 0,inactive: 0,inactive: 0,inactive: 0,inactive: 0,inactive: 0,inactive: 0,inactive: 0,inactive: 0,inactive: 0,inactive: 0
C/C(=C1/C(=O)Nc2ccc(NC(N)=O)cc21)c1ccc[nH]1 (10 µM),inactive: 0,inactive: 0,inactive: 0,inactive: 0,inactive: 0,inactive: 0,inactive: 0,inactive: 0,inactive: 0,active: 1,inactive: 0,inactive: 0,inactive: 0,inactive: 0,inactive: 0,inactive: 0,inactive: 0,inactive: 0,inactive: 0,inactive: 0
CC(C)(NS(=O)(=O)c1ccc2c(Cl)cnc(N=C(N)N)c2c1)C(=O)O (10 µM),inactive: 0,inactive: 0,inactive: 0,inactive: 0,inactive: 0,inactive: 0,inactive: 0,inactive: 0,inactive: 0,inactive: 0,inactive: 0,inactive: 0,inactive: 0,inactive: 0,inactive: 0,inactive: 0,inactive: 0,inactive: 0,inactive: 0,inactive: 0
CC1CCc2nc(N)c(C#N)c(-c3cccnc3)c2C1 (stereo not given) (10 µM),inactive: 0,inactive: 0,inactive: 0,inactive: 0,inactive: 0,inactive: 0,inactive: 0,inactive: 0,inactive: 0,inactive: 0,inactive: 0,inactive: 0,inactive: 0,inactive: 0,inactive: 0,inactive: 0,inactive: 0,inactive: 0,inactive: 0,inactive: 0
O=C1c2ccc(Nc3ccc(F)cc3F)cc2CCc2ccc(OC[C@H](O)CO)cc21 [Skepinone-L] (2.5 µM),inactive: 0,inactive: 0,inactive: 0,inactive: 0,inactive: 0,inactive: 0,inactive: 0,inactive: 0,inactive: 0,inactive: 0,inactive: 0,inactive: 0,inactive: 0,inactive: 0,inactive: 0,inactive: 0,inactive: 0,inactive: 0,inactive: 0,inactive: 0
CC(C)(C)NC(=O)c1cncn1C1CCN(c2ccc(-c3nnc(C(F)(F)F)o3)cn2)CC1 (10 µM),inactive: 0,inactive: 0,inactive: 0,inactive: 0,inactive: 0,inactive: 0,inactive: 0,inactive: 0,inactive: 0,inactive: 0,inactive: 0,inactive: 0,inactive: 0,inactive: 0,inactive: 0,inactive: 0,inactive: 0,inactive: 0,inactive: 0,inactive: 0

# Compounds shown so far containing a cyano group, in the order listed:
Structure (SMILES),kinase-Nluc reporter destabilization hit call (EGFR),kinase-Nluc reporter destabilization hit call (EGFR_G719S),kinase-Nluc reporter destabilization hit call (EGFR_G719S_T790M),kinase-Nluc reporter destabilization hit call (EGFR_L718V),kinase-Nluc reporter destabilization hit call (EGFR_L858R),kinase-Nluc reporter destabilization hit call (EGFR_L861Q),kinase-Nluc reporter destabilization hit call (EGFR_T790M),kinase-Nluc reporter destabilization hit call (EPHA2),kinase-Nluc reporter destabilization hit call (ERBB3),kinase-Nluc reporter destabilization hit call [1],kinase-Nluc reporter destabilization hit call (ERN1),kinase-Nluc reporter destabilization hit call (FGFR1),kinase-Nluc reporter destabilization hit call (FGFR2),kinase-Nluc reporter destabilization hit call (FGFR3),kinase-Nluc reporter destabilization hit call (FGR),kinase-Nluc reporter destabilization hit call (FLT3),kinase-Nluc reporter destabilization hit call (FYN),kinase-Nluc reporter destabilization hit call (GSK3A),kinase-Nluc reporter destabilization hit call (HER2),kinase-Nluc reporter destabilization hit call (INSRR)
N#CC(c1ccnc(NCCc2cccnc2)n1)c1nc2ccccc2s1 (stereo not given) (10 µM),inactive: 0,inactive: 0,inactive: 0,inactive: 0,inactive: 0,inactive: 0,inactive: 0,inactive: 0,inactive: 0,inactive: 0,inactive: 0,inactive: 0,inactive: 0,inactive: 0,inactive: 0,inactive: 0,inactive: 0,inactive: 0,inactive: 0,inactive: 0
CC1CCc2nc(N)c(C#N)c(-c3cccnc3)c2C1 (stereo not given) (10 µM),inactive: 0,inactive: 0,inactive: 0,inactive: 0,inactive: 0,inactive: 0,inactive: 0,inactive: 0,inactive: 0,inactive: 0,inactive: 0,inactive: 0,inactive: 0,inactive: 0,inactive: 0,inactive: 0,inactive: 0,inactive: 0,inactive: 0,inactive: 0
